Values of other authors as cited in US7687496B2, “C7-substituted camptothecin analogs” (priority 2007, dated 2010).

Settings: closed E-ring lactone form; cited from earlier work

For `CC[C@@]1(O)C(=O)OCc2c1cc1n(c2=O)Cc2cc3ccccc3nc2-1` [CPT, (S)-4-Ethyl-4-hydroxy-1H-pyrano[3′,4′:6,7]indolizino[1,2-b]quinoline-3,14(4H,12H)-dione], the solubility in water is given as “approximately 0.1 μg/mL”.
